Source: the supplement of paper PMC10735217
Structures can show the parent of a compound that is named as a salt. Some of the results follow. This data set is noisy: repeats of one test often differ as much as different tests do.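 Human kidney-derived cells stably carry a construct in which eight TEAD-binding elements drive luciferase, measured by luminescence in a drug-repurposing library screen. A hit is any compound whose signal exceeds the plate mean by more than five robust Z scores.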

System: HEK293A TEAD-LUC reporter
Assay: TEAD-luciferase reporter activity (YAP activation), robust Z score vs plate; higher = stronger YAP/TEAD activation
Settings: 24 h

| Compound | TEAD-luciferase reporter activity (compound concentration: 200 nM) | TEAD-luciferase reporter activity (compound concentration: 2 uM) | TEAD-luciferase reporter activity (compound concentration: 10 uM) |
| --- | --- | --- | --- |
| CCNCCc1ccc(CN(CC)c2cc(OC)ccc2[C@@H]2CCc3cc(O)ccc3C2)cc1 [Elacestrant (dihydrochloride)] | inactive: 4.65 | inactive: -1.62 | inactive: -0.732 |
| NC[C@H]1CC[C@H](C(=O)O)CC1 [tranexamic acid, Xenoport] | inactive: 0.0352 | inactive: 0.705 | inactive: -1.99 |
| CCn1c(SC)nnc1-c1ccncc1 | inactive: -1.31 | inactive: -0.502 | inactive: -0.037 |
| CC[C@@H](CO)Nc1nc(NCc2ccccc2)c2ncn(C(C)C)c2n1 [seliciclib] |  | inactive: -0.708 |  |
| CCOC(=O)c1c(N)sc2c1CCN(Cc1ccccc1)C2 | inactive: -1.57 | inactive: 0.867 | inactive: -2.09 |
| O=c1c2[nH]nnc2nc2sc(CCC3CCCCC3)nn12 | inactive: -1.51 | inactive: 0.449 | inactive: -2.22 |
| CCCCCN(CCO)c1cc(N2CCCCC2)nc2ncnn12 | inactive: -0.344 | inactive: 1.03 | inactive: 1.11 |
| CC(C)c1c(O)cc(/C=C/c2ccccc2)cc1O | inactive: 4.02 | inactive: 0.313 | active: 5.11 |
| CO[C@@]1(NC(=O)CSCC#N)C(=O)N2C(C(=O)[O-])=C(CSc3nnnn3C)CS[C@@H]21 [cefmetazole] |  | inactive: -0.308 |  |
| CO[C@@]1(NC(=O)CSCC#N)C(=O)N2C(C(=O)[O-])=C(CSc3nnnn3C)CS[C@@H]21 [Cefmetazole sodium] | inactive: -0.639 |  | inactive: 0.938 |
| OCCCCSc1ccc(Cl)cc1 | inactive: 1.73 | inactive: -1.09 | inactive: -0.832 |
| CCCCCCCNC(=O)Nc1c(F)cc(F)cc1CCc1ccc(CC(C)(C)C)cc1 | inactive: -1.22 | inactive: -0.249 | inactive: -0.61 |
| Cc1onc(-c2ccccc2)c1-c1ccc(S(N)(=O)=O)cc1 [valdecoxib] |  | inactive: -1.6 |  |
| Cc1onc(-c2ccccc2)c1-c1ccc(S(N)(=O)=O)cc1 | inactive: 0.106 |  | inactive: 2.65 |
| COC1/C=C/OC2(C)Oc3c(C)c(O)c4c(O)c(c(/C=N/N5CCN6CCCCC6C5)c(O)c4c3C2=O)NC(=O)/C(C)=C\C=C\C(C)C(O)C(C)C(O)C(C)C(OC(C)=O)C1C (centres undefined) | inactive: -1.34 | inactive: -1.87 | inactive: -2.68 |
| CC1=C(CC(=O)O)c2cc(F)ccc2/C1=C\c1ccc(S(C)(=O)=O)cc1 [Exisulind] |  | inactive: -1.06 |  |
| CC1=C(CC(=O)O)c2cc(F)ccc2/C1=C\c1ccc(S(C)(=O)=O)cc1 [Sulindac sulfone] | inactive: 0.386 |  | inactive: 1.95 |
| C=CC[C@@H]1/C=C(\C)C[C@H](C)C[C@H](OC)[C@H]2O[C@@](O)(C(=O)C(=O)N3CCCC[C@H]3C(=O)O[C@H](/C(C)=C/[C@@H]3CC[C@@H](O)[C@H](OC)C3)[C@H](C)[C@@H](O)CC1=O)[C@H](C)C[C@@H]2OC [Tacrolimus (Fk506)] | inactive: 1.34 |  | inactive: 0.115 |
| C=CC[C@@H]1/C=C(\C)C[C@H](C)C[C@H](OC)[C@H]2O[C@@](O)(C(=O)C(=O)N3CCCC[C@H]3C(=O)O[C@H](/C(C)=C/[C@@H]3CC[C@@H](O)[C@H](OC)C3)[C@H](C)[C@@H](O)CC1=O)[C@H](C)C[C@@H]2OC [Tacrolimus] |  | inactive: 0.238 |  |

| Compound | TEAD-luciferase reporter activity (compound concentration: 200 nM) | TEAD-luciferase reporter activity (compound concentration: 2 uM) | TEAD-luciferase reporter activity (compound concentration: 10 uM) |
| --- | --- | --- | --- |
| C=O | inactive: 2.23 | inactive: 0.25 | inactive: -0.501 |
| CN1C[C@H]2C[C@@H](NC(=O)c3n[nH]c4ccccc34)C[C@@H](C1)N2C | inactive: -3.3 | inactive: 1.56 | inactive: -1.6 |
| O=C1NC2(CCN(CC3CCCCC3)CC2)Oc2ccccc21 | inactive: 1.22 |  | inactive: 1.47 |
| COc1ncnc(NS(=O)(=O)c2ccc(N)cc2)c1OC [Sulfadoxine] | inactive: -1.39 | inactive: 1.59 | inactive: 1.01 |
| O=S(=O)(Nc1cc(-c2ccccn2)nn1-c1ccccc1)c1ccccc1 | inactive: -2.09 |  | inactive: 0.283 |
| O=C(NN1CCCCC1)C1=NN(c2ccc(Cl)cc2Cl)C(c2ccc(Cl)cc2)C1 (centres undefined) [Rosonabant] | inactive: 0.415 | inactive: -0.0439 | inactive: 0.65 |
| CC(=O)OC1CCC2(C)C(=CCC3C2CCC2(C)C(C(C)=O)CCC32)C1 (centres undefined) [Pregnenolone acetate] | inactive: -1.38 | inactive: 0.246 | inactive: 1.22 |
| NC[C@H]1OB(O)c2c(OCCCO)cccc21 [Epetraborole HCl] | inactive: -0.661 | inactive: -0.703 | inactive: -1.26 |
| CCCNc1cc(CC)c(-c2ccccc2)nn1 | active: 5.57 | inactive: -0.721 | inactive: -0.748 |
| N=C(N)NCCCOc1ccccc1 | inactive: -0.92 | inactive: 0.299 | inactive: 0.826 |
| Fc1cc(-c2cccc(-c3ncn[nH]3)c2)cc(F)c1CNC1Cc2ccccc2C1 | inactive: -1.42 | inactive: 1.03 | inactive: -0.68 |
| CC(C)n1nc(-c2cccc(Cl)c2Cl)c(N)nc1=N [Palatrigine] | inactive: -0.443 | inactive: 3.43 | inactive: -1.4 |
| CCCCCCCC[C@H](SCCCCCC)C(=O)Nc1c(SC)cc(C)nc1SC | inactive: -0.286 | inactive: -0.0699 | inactive: -0.252 |
| CC(=O)c1ccc2c(c1)N(CCCN1CCN(CCO)CC1)c1ccccc1S2 | inactive: -0.814 | inactive: -0.796 | inactive: 1.05 |
| CC(F)(F)CN1CCOc2c(nn(-c3ccccc3Cl)c2-c2ccc(Cl)cc2)C1=O | inactive: 0.39 | inactive: -1.76 | active: 5.24 |
| NC(=O)c1ncn([C@@H]2O[C@H](CO)[C@@H](O)[C@H]2O)c1N [Acadesine] | inactive: 0.436 | inactive: -1.92 | inactive: 0.482 |
| COc1ccccc1/C(C)=C/CN(C)CCCC(P(=O)(O)O)P(=O)(O)O | inactive: -0.299 | inactive: -1.13 | inactive: 1.11 |
| CN[C@@H]1C[C@H]2O[C@@](C)([C@@H]1OC)n1c3ccccc3c3c4c(c5c6ccccc6n2c5c31)C(=O)N[C@H]4O | inactive: 0.735 | inactive: 0.76 | inactive: -1.26 |
| CN(c1ccc([N+](=O)[O-])c(N2CCC(C(=O)O)CC2)n1)S(=O)(=O)c1ccccc1 | inactive: 0.791 | inactive: -0.51 | inactive: 1.69 |

| Compound | TEAD-luciferase reporter activity (compound concentration: 200 nM) | TEAD-luciferase reporter activity (compound concentration: 2 uM) | TEAD-luciferase reporter activity (compound concentration: 10 uM) |
| --- | --- | --- | --- |
| NC(=O)c1ncn([C@@H]2O[C@H](CNCc3ccccc3)[C@@H](O)[C@H]2O)c1N | inactive: 2.13 | inactive: -0.867 | inactive: 0.449 |
| COc1cc(NC(=O)Nc2cccc(CNC(=O)O[C@H]3CCOC3)c2)ccc1-c1cnco1 [Merimepodib] | inactive: 3.72 | inactive: -1.33 | inactive: 3.45 |
| CN1CCCC(CC2c3ccccc3Sc3ccccc32)C1 (centres undefined) [Metixene hydrochloride] | inactive: -2.29 | inactive: 0.151 | inactive: -0.697 |
| CC1(C)CSSC[C@@H](C(=O)O)NC1=O [Limazocic] | inactive: 0.135 | inactive: -1.86 | inactive: 0.575 |
| O=C(/C=C/c1ccc([N+](=O)[O-])cc1)NC[C@H]1CN(c2ccc(N3CCOCC3)c(F)c2)C(=O)O1 | inactive: 0.403 | inactive: -1.7 | inactive: 0.82 |
| COc1ccc2c(c1)c(CC(=O)OCC(=O)O)c(C)n2C(=O)c1ccc(Cl)cc1 [acemetacin] | inactive: -0.777 | inactive: 1.23 | inactive: 1.3 |
| N#CC(C#N)=C1NCCN1CCNCc1ccc(CN2CCCCC2)o1 | inactive: -0.423 | inactive: 2.1 | inactive: 2.54 |
| Cc1ccc(C2Oc3ccccc3C(=O)C2(C)O)cc1 (centres undefined) | inactive: -1.55 | inactive: -0.124 | inactive: 0.676 |
| Cc1ccnc(N2CCN(CCc3c(C)n4c5c(cc(CC(C)C)cc35)CCC4)CC2)c1 | inactive: -1.61 | inactive: -0.795 | inactive: -0.737 |
| COc1ccc(-c2nc(OC)nn2-c2ccc(OC)cc2)cc1 | inactive: -2.79 | inactive: -1.57 | inactive: -0.22 |
| CC(COc1ccccc1)NC(C)C(O)c1ccc(OC(=O)C(C)(C)C)cc1 (centres undefined) [isoxsuprine pivalate] | inactive: 0.442 | inactive: -0.0527 | inactive: 1.73 |
| Clc1ccc(CSC(Cn2ccnc2)c2ccc(Cl)cc2Cl)cc1 (centres undefined) | inactive: -0.453 |  | inactive: -0.183 |
| Clc1ccc(CSC(Cn2ccnc2)c2ccc(Cl)cc2Cl)cc1 (centres undefined) [Sulconazole (nitrate)] |  | inactive: -0.0835 |  |
| Cn1c(C#N)ccc1-c1ccc2c(c1)C(C)(C)OC(=S)N2 [tanaproget] | inactive: 0.758 | inactive: -2.11 | inactive: -0.812 |
| CCCCN(CCCC)CCC(O)c1cc2c(Cl)cc(Cl)cc2c2cc(C(F)(F)F)ccc12 (centres undefined) [Halofantrine HCl] | inactive: -0.181 | inactive: -0.547 | inactive: 0.676 |
| COc1ccc(Cl)cc1C(=O)NCCc1ccc(C(=O)O)cc1 [meglitinide] | inactive: 0.221 | inactive: -0.573 | inactive: -0.895 |
| COc1ccc2nc3n(c(=O)c2c1)CCC3 | inactive: -1.47 | inactive: 0.542 | inactive: -1.59 |
| CNC(=O)COc1cccc(Nc2ncc(F)c(Nc3ccc4c(c3)NC(=O)C(F)(F)O4)n2)c1 | inactive: -1.85 | inactive: -1.63 | inactive: 0.0434 |

Pulled one by one from the list above (4):

| Compound | TEAD-luciferase reporter activity (compound concentration: 200 nM) | TEAD-luciferase reporter activity (compound concentration: 2 uM) | TEAD-luciferase reporter activity (compound concentration: 10 uM) |
| --- | --- | --- | --- |
| Cc1ccnc(N2CCN(CCc3c(C)n4c5c(cc(CC(C)C)cc35)CCC4)CC2)c1 | inactive: -1.61 | inactive: -0.795 | inactive: -0.737 |
| Clc1ccc(CSC(Cn2ccnc2)c2ccc(Cl)cc2Cl)cc1 (centres undefined) [Sulconazole (nitrate)] |  | inactive: -0.0835 |  |
| NC(=O)c1ncn([C@@H]2O[C@H](CNCc3ccccc3)[C@@H](O)[C@H]2O)c1N | inactive: 2.13 | inactive: -0.867 | inactive: 0.449 |
| O=C(/C=C/c1ccc([N+](=O)[O-])cc1)NC[C@H]1CN(c2ccc(N3CCOCC3)c(F)c2)C(=O)O1 | inactive: 0.403 | inactive: -1.7 | inactive: 0.82 |
